The text below walks through data of the supplement of paper PMC5949888.

Most values lie at the floor of the assay. Slopes are relative: functional sequences can read slightly below zero.

This data set deals with Saccharomyces cerevisiae PS128 hsf1 delta, HSF1(1-493) fusion. Put plainly: growth estimate (transactivation domain function in HSF1 fusion, heat-shock survival) (a.u. (slope of normalised read count over time)); higher = stronger growth at 37°C, i.e. more transactivation activity. The settings on record: library: random library. Here is the method: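 Random 60-nt DNA library encoding peptides of up to 20 aa, fused to the C-terminus of yeast HSF1 residues 1-493 (C-terminal TAD deleted) and expressed from the native HSF1 promoter on a CEN plasmid in hsf1-deleted S. cerevisiae PS128. Cells were selected at 37°C on -trp 5-FOA plates for 0, 2, 4, 6 and 8 days and amplicons were sequenced. Growth estimate is the slope of a robust linear fit of total-sum-normalised read counts (normalised to the first time point) over time, using at least 2 replicates. Sequences are classed functional (TAD activity) above a threshold of -0.13, set from stop-codon control sequences.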
Regarding SGHGKGLFTGAHRFAQCRGH, the growth estimate was -0.106.
Turning to RGYLEH, the growth estimate is less than -0.25.
In the case of QGEY, the growth estimate was less than -0.25.
As for SLS, the growth estimate is less than -0.25.
Take HHIFMTAPGTNNGRCAYRCI: the growth estimate is less than -0.25.
Turning to LYVHVINPA, the growth estimate was less than -0.25.
The value for CSEW was less than -0.25.
As to YTVHCQNTYFLCS, the growth estimate was less than -0.25.
For the substance PSSLNSSTDGKELFGISVRD, the growth estimate was less than -0.25.
In the case of RFADPKRILSNSDTDGVVYV, the growth estimate is less than -0.25.
Regarding PRRTSKEWVTISRLSISPNV, the growth estimate is less than -0.25.
For TALWVFPCPLCNRILGSI, the growth estimate is less than -0.25.
As to WGGTCVREIVGHEGTRHLPR, the growth estimate is -0.25.
On to VWDIETLRVNSEIVRDSRRR, for which the growth estimate is less than -0.25.
Turning to VRCYERMGNRSTLWHMGQTR, the growth estimate was less than -0.25.
As to RNGAAFCRKRGTTFGGPTVQ, the growth estimate was -0.192.
Consider GLS, for which the growth estimate was less than -0.25.
Then VHRIVPYG, with less than -0.25; and TICTVYLKPSIKEVGIERVK, with less than -0.25.
As to LYVTDKEC, the growth estimate is less than -0.25.
Then SCYVSGT, with less than -0.25; and LVAERGTLEQTLNVRCKSYL, with less than -0.25; and VRHV, with less than -0.25.
As to RKPTFDGR, the growth estimate is less than -0.25.
For the substance RCHIRSGCASAWRRLQRAYA, the growth estimate is -0.246.
Then FHPLHMGLKFAGALAPQNAA, with less than -0.25.
For LCLLVRCSDIRRRLLAIR, the growth estimate is -0.229.
Take RTKREGCV: the growth estimate is less than -0.25.
As for RGLFRRQV, the growth estimate was less than -0.25.
Regarding LFKKTYILVARNQGVVPKGP, the growth estimate was less than -0.25.
VQFLL: the growth estimate is less than -0.25.
On to RFSSKLPSCPDGLERKIPMS, for which the growth estimate is less than -0.25.
Take TDECS: the growth estimate was less than -0.25.
The value for TGRRGRNPCVQGKYPRST was less than -0.25; that for ADQ was less than -0.25.
Take MTSCNTCHMSLSGQPAPSVS: the growth estimate was 0.241.
As to PETSSRCARVGGKRNHLDCK, the growth estimate was less than -0.25.
Take FSIVDRAVSTSCA: the growth estimate is less than -0.25.
With CLDPGLWSPGTVTHSSSWVV, the growth estimate is less than -0.25.
For SSFE, the growth estimate was less than -0.25.
On to MALVPNYSVVTLLTGVTAV, for which the growth estimate is less than -0.25.
VSRLTWG: the growth estimate was less than -0.25.
Regarding FNCTYSQ, the growth estimate is -0.246.
For the substance WIHGRLTYEMSILGMKTTES, the growth estimate was less than -0.25.
As to EPW, the growth estimate is less than -0.25.
WRMGSVPISICPFPGLSTPS: the growth estimate was less than -0.25.
Take HRTLFLDTCVRCSYRRPPNQ: the growth estimate is less than -0.25.
TSNLLVFAVHTGRGMDAGLI: the growth estimate is less than -0.25.
The value for AIGSEGTH was less than -0.25; that for GCVRAHKEVVHFGTSCLGAI was less than -0.25.
Then FNSYTCIGVGHKPVF, with less than -0.25.
Consider RSRGWPVKPATALCVRS, for which the growth estimate is less than -0.25.
Regarding GWALSRMPRTYMKRVPI, the growth estimate is less than -0.25.
Regarding CRVKPSVGSRMIKADRSGKP, the growth estimate is less than -0.25.
The value for QVHIFW was less than -0.25.
For the substance LTNWSLKVRLPGCKQSNRDL, the growth estimate is less than -0.25.
As for SLQGKVFVEISPRRTCHAWS, the growth estimate was less than -0.25.
THRGPVRMIRGRPKKAS: the growth estimate is -0.248.
Consider SCNLSECWDDLDPNPILSGG, for which the growth estimate is less than -0.25.
As to DVHSLRHFAATFSRTGVHIC, the growth estimate was less than -0.25.
With AHSQAQRGRWSRTTNYKVSR, the growth estimate is less than -0.25.
As to NHMDAAPSKARDCRKDFVSG, the growth estimate was less than -0.25.
In the case of AFLC, the growth estimate was less than -0.25.
Regarding EVFSQGGFRGRQIAKRLSRQ, the growth estimate is less than -0.25.
